No constants are given. Whether binding was seen depends on the method and setting. In cells and extracts the contact can be indirect. Some results given as binding are weak or reduced against the parent protein; the word gives no strength. Tags and fused reporters may be left off the sequences shown.
Biological target: T1, GFP-epitope tagged BIN1V1 (neuronal isoform of Bridging integrator 1) (UniProt O00499)
T1 sequence: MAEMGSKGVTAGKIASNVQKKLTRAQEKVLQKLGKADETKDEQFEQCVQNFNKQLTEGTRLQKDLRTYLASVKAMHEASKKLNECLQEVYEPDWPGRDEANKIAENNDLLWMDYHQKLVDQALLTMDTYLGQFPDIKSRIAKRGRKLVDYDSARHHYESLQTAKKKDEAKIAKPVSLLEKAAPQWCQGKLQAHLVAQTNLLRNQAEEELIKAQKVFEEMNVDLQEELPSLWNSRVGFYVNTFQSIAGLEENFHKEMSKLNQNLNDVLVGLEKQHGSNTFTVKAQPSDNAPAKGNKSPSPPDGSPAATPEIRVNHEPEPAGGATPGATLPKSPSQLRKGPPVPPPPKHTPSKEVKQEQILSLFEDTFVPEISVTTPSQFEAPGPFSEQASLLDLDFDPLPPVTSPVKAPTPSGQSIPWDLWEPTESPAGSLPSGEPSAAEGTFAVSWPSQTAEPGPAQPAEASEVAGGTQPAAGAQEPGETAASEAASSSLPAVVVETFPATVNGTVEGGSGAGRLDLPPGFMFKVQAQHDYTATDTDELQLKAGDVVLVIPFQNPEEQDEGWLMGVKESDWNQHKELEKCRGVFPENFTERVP
Assay: co-IP; cells expressing BIN1V1GFP or BIN1V9GFP without or with RIN3flag; immunoprecipitation with anti-GFP antibody, immunoblot with anti-BIN1 and anti-RIN3

binding: binds
B1: flag-epitope tagged RIN3 (Ras and Rab interactor 3) (protein, UniProt Q8TB24 1-985)
chain: MIRHAGAPARGDPTGPVPVVGKGEEEEEEDGMRLCLPANPKNCLPHRRGISILEKLIKTCPVWLQLSLGQAEVARILHRVVAGMFLVRRDSSSKQLVLCVHFPSLNESSAEVLEYTIKEEKSILYLEGSALVFEDIFRLIAFYCVSRDLLPFTLRLPQAILEASSFTDLETIANLGLGFWDSSLNPPQERGKPAEPPRDRAPGFPLVSSLRPTAHDANCACEIELSVGNDRLWFVNPIFIEDCSSALPTDQPPLGNCPARPLPPTSDATSPTSRWAPRRPPPPPPVLPLQPCSPAQPPVLPALAPAPACPLPTSPPVPAPHVTPHAPGPPDHPNQPPMMTCERLPCPTAGLGPLREEAMKPGAASSPLQQVPAPPLPAKKNLPTAPPRRRVSERVSLEDQSPGMAAEGDQLSLPPQGTSDGPEDTPRESTEQGQDTEVKASDPHSMPELPRTAKQPPVPPPRKKRISRQLASTLPAPLENAELCTQAMALETPTPGPPREGQSPASQAGTQHPPAQATAHSQSSPEFKGSLASLSDSLGVSVMATDQDSYSTSSTEEELEQFSSPSVKKKPSMILGKARHRLSFASFSSMFHAFLSNNRKLYKKVVELAQDKGSYFGSLVQDYKVYSLEMMARQTSSTEMLQEIRTMMTQLKSYLLQSTELKALVDPALHSEEELEAIVESALYKCVLKPLKEAINSCLHQIHSKDGSLQQLKENQLVILATTTTDLGVTTSVPEVPMMEKILQKFTSMHKAYSPEKKISILLKTCKLIYDSMALGNPGKPYGADDFLPVLMYVLARSNLTEMLLNVEYMMELMDPALQLGEGSYYLTTTYGALEHIKSYDKITVTRQLSVEVQDSIHRWERRRTLNKARASRSSVQDFICVSYLEPEQQARTLASRADTQAQALCAQCAEKFAVERPQAHRLFVLVDGRCFQLADDALPHCIKGYLLRSEPKRDFHFVYRPLDGGGGGGGGSPPCLVVREPNFL

Reference: publication PMC8894474
